Consider 1 substance from article PMC8486766.

By UniProt entry, the sequences of proteins in these tests, tags left out.
UniProt P51608: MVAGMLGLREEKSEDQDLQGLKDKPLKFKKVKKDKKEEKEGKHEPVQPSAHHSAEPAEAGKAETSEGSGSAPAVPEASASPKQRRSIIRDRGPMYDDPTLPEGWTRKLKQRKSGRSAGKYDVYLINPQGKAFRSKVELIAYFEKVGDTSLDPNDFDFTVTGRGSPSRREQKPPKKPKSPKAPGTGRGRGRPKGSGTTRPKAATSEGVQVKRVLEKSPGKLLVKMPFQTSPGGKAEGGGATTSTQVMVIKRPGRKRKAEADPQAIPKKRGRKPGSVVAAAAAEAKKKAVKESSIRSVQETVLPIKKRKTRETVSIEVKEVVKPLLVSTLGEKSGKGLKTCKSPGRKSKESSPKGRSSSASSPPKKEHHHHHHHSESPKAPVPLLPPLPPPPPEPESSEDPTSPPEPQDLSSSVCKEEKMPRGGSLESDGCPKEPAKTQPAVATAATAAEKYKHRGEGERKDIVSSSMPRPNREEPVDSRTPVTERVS
UniProt Q92841: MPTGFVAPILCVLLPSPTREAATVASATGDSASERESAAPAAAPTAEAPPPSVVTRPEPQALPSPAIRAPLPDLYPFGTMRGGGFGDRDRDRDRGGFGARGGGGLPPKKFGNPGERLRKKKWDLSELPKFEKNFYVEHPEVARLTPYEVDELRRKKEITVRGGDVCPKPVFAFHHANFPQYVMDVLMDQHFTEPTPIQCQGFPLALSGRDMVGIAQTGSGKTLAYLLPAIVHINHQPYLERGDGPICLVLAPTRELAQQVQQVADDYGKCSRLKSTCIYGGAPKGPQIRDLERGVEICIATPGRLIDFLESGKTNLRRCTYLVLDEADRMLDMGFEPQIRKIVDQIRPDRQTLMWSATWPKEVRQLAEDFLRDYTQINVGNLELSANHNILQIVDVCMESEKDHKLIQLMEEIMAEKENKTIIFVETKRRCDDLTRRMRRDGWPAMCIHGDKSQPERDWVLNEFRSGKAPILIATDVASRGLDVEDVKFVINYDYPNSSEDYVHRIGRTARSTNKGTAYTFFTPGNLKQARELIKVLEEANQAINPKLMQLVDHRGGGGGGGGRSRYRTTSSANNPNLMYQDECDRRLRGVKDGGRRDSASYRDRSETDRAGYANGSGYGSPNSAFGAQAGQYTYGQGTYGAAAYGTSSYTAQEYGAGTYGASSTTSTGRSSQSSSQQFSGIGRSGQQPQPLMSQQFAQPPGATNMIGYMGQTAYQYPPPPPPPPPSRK

The experiment has as its target FLAG-tagged full-length (FL) MeCP2 (human) (UniProt P51608). Kind of experiment: affinity purification with mass spectrometry; anti-FLAG IP from the HMW extract (nuclease-released chromatin pellet, low salt) of HEK293T cells expressing FLAG-MeCP2; co-purifying bands of a Coomassie-stained gel identified by MS.

No constants are given. Whether binding was seen depends on the method and setting. In cells and extracts the contact can be indirect. These calls come from enrichment with a bait or labelling near it, and not all partners need be listed.

On to DDX17 (from UniProt Q92841 1-729), for which the binding entry is on record as “binds”.
